In patent publication US20060257407A1 (Janssen / Centocor, published 2006):
These are yes or no findings as the source states them, for the method shown. Some binding calls cover weakened binding; strength is not graded here.

By UniProt entry, the sequences of proteins in these tests, tags left out. Where a name states a change or a piece, a line headed by the entry shows the natural chain unless it says otherwise.
UniProt P05231: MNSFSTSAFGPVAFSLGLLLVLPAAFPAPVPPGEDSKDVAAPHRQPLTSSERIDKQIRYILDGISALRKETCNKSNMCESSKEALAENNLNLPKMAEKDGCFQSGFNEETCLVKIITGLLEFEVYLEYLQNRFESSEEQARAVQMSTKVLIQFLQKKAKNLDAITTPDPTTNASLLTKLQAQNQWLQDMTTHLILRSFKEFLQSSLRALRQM
UniProt P08887: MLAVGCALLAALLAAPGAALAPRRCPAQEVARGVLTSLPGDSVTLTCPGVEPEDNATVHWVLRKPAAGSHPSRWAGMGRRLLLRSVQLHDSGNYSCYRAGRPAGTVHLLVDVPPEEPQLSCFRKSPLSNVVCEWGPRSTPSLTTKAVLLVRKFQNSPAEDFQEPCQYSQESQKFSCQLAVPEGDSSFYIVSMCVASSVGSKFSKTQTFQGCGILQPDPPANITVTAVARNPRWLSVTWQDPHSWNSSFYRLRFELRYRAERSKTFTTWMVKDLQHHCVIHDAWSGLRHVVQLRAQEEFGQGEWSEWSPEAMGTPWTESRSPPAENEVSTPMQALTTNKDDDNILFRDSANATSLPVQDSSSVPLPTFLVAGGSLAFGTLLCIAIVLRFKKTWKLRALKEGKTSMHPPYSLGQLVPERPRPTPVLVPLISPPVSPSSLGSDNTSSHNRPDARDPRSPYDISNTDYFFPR

Experiments:
recombinant human IL-6 = recombinant human IL-6 (human, UniProt P05231 30-212); assay: ELISA: IgG dilutions captured on goat anti-human kappa, biotinylated IL-6 at 200 ng/ml, NeutrAvidin-alkaline phosphatase, O.D. 560 after 15 min
Method: The ELISA generally used Costar 3366 microtiter plates coated with a goat anti-human kappa antibody. Dilutions of Fab (or IgG) were incubated in the coated wells for 1 hr at 22° C. The wells were then washed with PBS, 0.1% Tween 20 and biotinylated IL-6 at 200 ng/ml was added for 1 hour. After washing, an alkaline phosphatase conjugate of NeutrAvidin was added and incubated for 1 hour at 22° C. A colorimetric substrate was added after extensive washing and the bound IL-6 was determined. A variation of this ELISA included an extended wash step in a beaker of PBS, 0.01% BSA at 37° C. after the biotinylated IL-6 incubation, e.g., an 18 hour extended wash step.

IL-6/sIL-6R complex = target: T1, IL-6/sIL-6R complex (human, UniProt P08887 20-358, limits assumed); assay: EIA: sIL-6R coated, 200 ng/ml human IL-6, antibody dilutions from 10 ug/ml, anti-human IgG-HRP
T1 construct: Formed on the plate: sIL-6R coated at 10 ug/ml, then human IL-6 added at 200 ng/ml; also called sIL-6/sIL-6R complex; IL-6/IL-6R complex
Method: Costar EIA plates (Corning/Costar, Acton, Mass.) (Catalog # 9018) were coated with sIL-6R (10 μg/ml in PBS, 100 μl/well) overnight at 4° C. The plates were washed with 0.15M saline containing 0.02% (v/v) Tween 20 and wells were blocked with 1% (w/v) BSA in PBS, 200 μl/well for one hour at room temperature. The wells were washed again then in the sequential format incubated with 200 ng/ml human IL-6 (100 μl/well) in PBS for one hour at room temperature. Antibody was added to all wells in 10-fold serial dilutions from a starting concentration of 10 μg/ml in 100 μl/well for one hour at room temperature. After washing, the wells were incubated with goat anti-human IgG (H+L)-HRP-linked, (10 μg/ml in PBS) for 30 minutes at room temperature. The wells were washed and 100 μl/well of citrate-phosphate substrates solution (0.1M Citric Acid and 0.2M Sodium Phosphate, 0.01% H₂O₂ and 1 mg/ml OPD) was added for 15 minutes at room temperature. The reaction was stopped by addition of 25 μl/well of 4N sulfuric acid and the OD₄₉₀ was read via an automated ELISA plate reader (Molecular Devices Spectromax Plus, Sunnyvale, Calif.).
In addition, AME-A9, AME-A16, AME-18a, AME-20b, AME-22a, and AME-23a can detect IL-6 bound to sgp80 (sIL-6R) in a dose dependent manner using EIA. […] However, preincubation of IL-6 and any of these anti hIL-6 monoclonal antibodies precludes the ability of sIL-6R to bind IL-6.

- binding (recombinant human IL-6): binds
- binding (IL-6/sIL-6R complex): binds
B1: AME-22a (antibody, V domains shown)
VH: EVQLVESGGGLVQPGGSLRLSCAASGFQFSPFAMSWVRQAPGKGLEWVAKISPGGSWTYYPDTDTGRFTISRDNAKNSLYLQMNSLRAEDTAVYYCARQLWGYYALDFWGQGTTVTVSS
VL: EIVLTQSPATLSLSPGERATLSCSASYSVSYMYWYQQKPGQAPRLLIYDFSNLASGIPARFSGSGSGTDFTLTISSLEPEDFAVYYCMQWSGYPYTFGGGTKVEIK
notes: Tested as IgG; also called 150
